From a melanoma drug combination screen (doi:10.1371/journal.pone.0140310); values rounded.

Drug key:
PF-562271 (80 nM): CN(c1ncccc1CNc1nc(Nc2ccc3c(c2)CC(=O)N3)ncc1C(F)(F)F)S(C)(=O)=O
erlotinib (800 nM): C#Cc1cccc(Nc2ncnc3cc(OCCOC)c(OCCOC)cc23)c1
CX-4945 (400 nM): O=C(O)c1ccc2c(c1)nc(Nc1cccc(Cl)c1)c1ccncc12
tozasertib (6 nM): Cc1cc(Nc2cc(N3CCN(C)CC3)nc(Sc3ccc(NC(=O)C4CC4)cc3)n2)n[nH]1
stibogluconate (2000 nM): O=C(O)[C@@H]1[O][Sb](=[O])([O][Sb]2(=[O])[O][C@H]([C@H](O)CO)[C@H](O)[C@H](C(=O)O)[O]2)[O][C@H]([C@H](O)CO)[C@@H]1O (some centres not stated)
indole-3-carbinol (800 nM): OCc1c[nH]c2ccccc12
fingolimod (2000 nM): CCCCCCCCc1ccc(CCC(N)(CO)CO)cc1
sorafenib (400 nM): CNC(=O)c1cc(Oc2ccc(NC(=O)Nc3ccc(Cl)c(C(F)(F)F)c3)cc2)ccn1
dovitinib (100 nM): CN1CCN(c2ccc3nc(-c4c(N)c5c(F)cccc5[nH]c4=O)[nH]c3c2)CC1
everolimus (20 nM): CO[C@H]1C[C@@H]2CC[C@@H](C)[C@@](O)(O2)C(=O)C(=O)N2CCCC[C@H]2C(=O)O[C@H]([C@H](C)C[C@@H]2CC[C@@H](OCCO)[C@H](OC)C2)CC(=O)[C@H](C)/C=C(\C)[C@@H](O)[C@@H](OC)C(=O)[C@H](C)C[C@H](C)/C=C/C=C/C=C/1C

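The test systems are human melanoma cell lines, treated with two drugs together for 72 h and then stained and imaged. Each value is the count of nuclei relative to DMSO-treated wells, in %, so that 100 equals the control. Concentrations were fixed for each drug; these are the lower of two levels, a fifth of the higher. These are primary screening values without error estimates.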 This is part of the screen, not chosen by result. An entry leaves out what has no value listed here. A dash means that no value is listed here.

| Drugs | IST-MEL1 | A101D | LOX IMVI | COLO 800 | A375 | LB2518-MEL |
|---|---|---|---|---|---|---|
| fingolimod and dovitinib | 96.1 | 97.4 | 60.9 | 116 | 57.8 | 106 |
| dovitinib and everolimus | 77.8 | 83.4 | 114 | 58.4 | 43.5 | 57.4 |
| indole-3-carbinol and CX-4945 | 122 | 112 | 82.1 | 92.2 | 85.0 | 94.3 |
| stibogluconate and erlotinib | 103 | 94.8 | 136 | 105 | 97.3 | 108 |
| tozasertib and dovitinib | 99.3 | 102 | 90.0 | 72.1 | 84.9 | 81.3 |
| sorafenib and indole-3-carbinol | 112 | 94.7 | 93.0 | 126 | 111 | 99.9 |
| erlotinib and CX-4945 | 110 | 87.4 | 76.2 | 99.4 | 84.7 | - |
| fingolimod and stibogluconate | 97.6 | 99.2 | 145 | 83.9 | 79.4 | 113 |
| stibogluconate and sorafenib | 98.3 | 107 | 123 | 136 | 86.0 | 118 |
| CX-4945 and everolimus | 67.4 | 85.7 | 74.8 | 75.7 | 55.5 | 85.8 |
| dovitinib and erlotinib | 97.9 | 99.2 | 68.1 | 91.1 | 68.0 | 88.5 |
| PF-562271 and erlotinib | 90.3 | 90.6 | 96.3 | 91.1 | 66.9 | 94.3 |
| tozasertib and CX-4945 | 93.4 | 107 | 67.5 | 108 | 96.9 | 100 |
| tozasertib and PF-562271 | 107 | 93.3 | 119 | 91.0 | 79.6 | 86.2 |
| tozasertib and indole-3-carbinol | 111 | 85.6 | 72.7 | 90.4 | 122 | 84.3 |
| CX-4945 and sorafenib | 118 | 108 | 111 | 160 | 129 | 113 |
| everolimus and tozasertib | 90.9 | 73.4 | 101 | 64.4 | 48.3 | 71.0 |
| dovitinib and PF-562271 | 92.1 | 95.5 | 89.8 | 94.9 | 74.4 | 113 |
| fingolimod and tozasertib | 101 | 91.6 | 77.3 | 101 | 73.9 | 87.7 |
| everolimus and stibogluconate | 84.9 | 89.7 | 94.5 | 45.7 | 61.3 | 75.6 |
| everolimus and indole-3-carbinol | 81.6 | 78.2 | 70.5 | 59.3 | 49.1 | 70.8 |
| CX-4945 and stibogluconate | 105 | 103 | 100 | 84.9 | 105 | 106 |
| indole-3-carbinol and PF-562271 | 95.0 | 90.3 | 98.7 | 115 | 71.4 | 106 |
| PF-562271 and stibogluconate | 107 | 95.2 | 80.8 | 102 | 87.1 | 106 |
| dovitinib and sorafenib | 96.7 | 114 | 59.2 | 99.9 | 87.2 | 83.6 |
| PF-562271 and sorafenib | 86.2 | 90.7 | 90.5 | 103 | 87.0 | 112 |
| tozasertib and erlotinib | 95.5 | 92.7 | 136 | 95.0 | 85.7 | 99.1 |
| sorafenib and everolimus | 86.3 | 79.5 | 73.0 | 72.8 | 56.6 | 61.2 |
| tozasertib and sorafenib | 92.8 | 96.2 | 65.6 | 47.6 | 89.9 | 67.7 |
| stibogluconate and indole-3-carbinol | 93.2 | 101 | 90.1 | 71.3 | 83.5 | 123 |
| erlotinib and fingolimod | 95.0 | 36.4 | 77.9 | 99.2 | 59.9 | 103 |
| erlotinib and everolimus | 81.2 | 78.9 | 56.6 | 79.9 | 56.1 | 75.0 |
| fingolimod and sorafenib | 89.4 | 95.9 | 109 | 68.0 | 68.5 | 109 |
| fingolimod and everolimus | 69.8 | 69.3 | 44.1 | 39.3 | 31.0 | 82.2 |
| fingolimod and indole-3-carbinol | 88.9 | 83.6 | 87.4 | 85.7 | 58.0 | 90.2 |
| PF-562271 and CX-4945 | 97.5 | 96.7 | 84.2 | 19.4 | 91.7 | 120 |
| CX-4945 and dovitinib | 100 | 93.6 | 84.5 | 74.0 | 79.8 | 88.6 |
| PF-562271 and everolimus | 75.7 | 85.5 | 60.1 | 85.2 | 54.9 | 67.5 |

Once more, the final 4:

- fingolimod and indole-3-carbinol | IST-MEL1: 88.9; A101D: 83.6; LOX IMVI: 87.4; COLO 800: 85.7; A375: 58.0; LB2518-MEL: 90.2
- PF-562271 and CX-4945 | IST-MEL1: 97.5; A101D: 96.7; LOX IMVI: 84.2; COLO 800: 19.4; A375: 91.7; LB2518-MEL: 120
- CX-4945 and dovitinib | IST-MEL1: 100; A101D: 93.6; LOX IMVI: 84.5; COLO 800: 74.0; A375: 79.8; LB2518-MEL: 88.6
- PF-562271 and everolimus | IST-MEL1: 75.7; A101D: 85.5; LOX IMVI: 60.1; COLO 800: 85.2; A375: 54.9; LB2518-MEL: 67.5